No constants are given. Whether binding was seen depends on the method and setting. In cells and extracts the contact can be indirect. Here binding means that the protein was enriched with, or labelled near, the bait; the list need not be complete. Sequences can lack the tags named with a protein.
T1: BirA*-Flag-FANCA (UniProt O15360)
T1 sequence: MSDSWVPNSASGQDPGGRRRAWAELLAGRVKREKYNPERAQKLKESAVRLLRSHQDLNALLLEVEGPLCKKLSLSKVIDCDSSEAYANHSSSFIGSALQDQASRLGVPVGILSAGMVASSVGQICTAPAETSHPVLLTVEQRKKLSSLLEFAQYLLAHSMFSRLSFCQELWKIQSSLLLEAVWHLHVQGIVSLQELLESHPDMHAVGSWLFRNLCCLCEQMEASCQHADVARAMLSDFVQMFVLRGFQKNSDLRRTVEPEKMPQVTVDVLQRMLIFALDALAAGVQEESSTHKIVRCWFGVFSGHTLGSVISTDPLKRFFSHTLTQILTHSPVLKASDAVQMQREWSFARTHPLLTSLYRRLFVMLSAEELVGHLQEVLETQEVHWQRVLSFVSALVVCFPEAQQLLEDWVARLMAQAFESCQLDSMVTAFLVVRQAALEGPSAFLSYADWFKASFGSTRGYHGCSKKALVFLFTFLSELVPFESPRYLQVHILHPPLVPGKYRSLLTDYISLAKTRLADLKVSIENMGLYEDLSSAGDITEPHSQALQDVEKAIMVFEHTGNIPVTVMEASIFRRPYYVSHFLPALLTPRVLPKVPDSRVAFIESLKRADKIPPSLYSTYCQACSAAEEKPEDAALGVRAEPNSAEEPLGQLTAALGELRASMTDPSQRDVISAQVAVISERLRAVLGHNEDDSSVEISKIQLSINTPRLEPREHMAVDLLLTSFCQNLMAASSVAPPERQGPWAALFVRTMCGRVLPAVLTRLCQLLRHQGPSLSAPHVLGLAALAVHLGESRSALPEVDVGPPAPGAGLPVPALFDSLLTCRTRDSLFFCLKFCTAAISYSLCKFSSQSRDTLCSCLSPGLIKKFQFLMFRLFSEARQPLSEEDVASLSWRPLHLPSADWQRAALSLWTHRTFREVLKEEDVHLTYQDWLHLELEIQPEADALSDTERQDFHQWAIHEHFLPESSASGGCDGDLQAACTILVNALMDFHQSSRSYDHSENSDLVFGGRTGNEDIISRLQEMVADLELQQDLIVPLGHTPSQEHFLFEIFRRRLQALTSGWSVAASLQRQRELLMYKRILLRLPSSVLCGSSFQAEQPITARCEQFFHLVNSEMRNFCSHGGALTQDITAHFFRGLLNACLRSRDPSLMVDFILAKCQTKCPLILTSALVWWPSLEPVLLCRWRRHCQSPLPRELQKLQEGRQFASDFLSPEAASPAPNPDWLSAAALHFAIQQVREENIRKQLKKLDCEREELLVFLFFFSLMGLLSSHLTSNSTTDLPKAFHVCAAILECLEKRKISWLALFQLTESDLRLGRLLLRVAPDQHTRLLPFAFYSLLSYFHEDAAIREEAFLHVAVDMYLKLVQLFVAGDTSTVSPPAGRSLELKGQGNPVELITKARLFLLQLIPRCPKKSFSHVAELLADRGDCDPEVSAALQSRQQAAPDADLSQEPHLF

Amino acid sequences for entries named in this document (tags omitted).
UniProt P49790: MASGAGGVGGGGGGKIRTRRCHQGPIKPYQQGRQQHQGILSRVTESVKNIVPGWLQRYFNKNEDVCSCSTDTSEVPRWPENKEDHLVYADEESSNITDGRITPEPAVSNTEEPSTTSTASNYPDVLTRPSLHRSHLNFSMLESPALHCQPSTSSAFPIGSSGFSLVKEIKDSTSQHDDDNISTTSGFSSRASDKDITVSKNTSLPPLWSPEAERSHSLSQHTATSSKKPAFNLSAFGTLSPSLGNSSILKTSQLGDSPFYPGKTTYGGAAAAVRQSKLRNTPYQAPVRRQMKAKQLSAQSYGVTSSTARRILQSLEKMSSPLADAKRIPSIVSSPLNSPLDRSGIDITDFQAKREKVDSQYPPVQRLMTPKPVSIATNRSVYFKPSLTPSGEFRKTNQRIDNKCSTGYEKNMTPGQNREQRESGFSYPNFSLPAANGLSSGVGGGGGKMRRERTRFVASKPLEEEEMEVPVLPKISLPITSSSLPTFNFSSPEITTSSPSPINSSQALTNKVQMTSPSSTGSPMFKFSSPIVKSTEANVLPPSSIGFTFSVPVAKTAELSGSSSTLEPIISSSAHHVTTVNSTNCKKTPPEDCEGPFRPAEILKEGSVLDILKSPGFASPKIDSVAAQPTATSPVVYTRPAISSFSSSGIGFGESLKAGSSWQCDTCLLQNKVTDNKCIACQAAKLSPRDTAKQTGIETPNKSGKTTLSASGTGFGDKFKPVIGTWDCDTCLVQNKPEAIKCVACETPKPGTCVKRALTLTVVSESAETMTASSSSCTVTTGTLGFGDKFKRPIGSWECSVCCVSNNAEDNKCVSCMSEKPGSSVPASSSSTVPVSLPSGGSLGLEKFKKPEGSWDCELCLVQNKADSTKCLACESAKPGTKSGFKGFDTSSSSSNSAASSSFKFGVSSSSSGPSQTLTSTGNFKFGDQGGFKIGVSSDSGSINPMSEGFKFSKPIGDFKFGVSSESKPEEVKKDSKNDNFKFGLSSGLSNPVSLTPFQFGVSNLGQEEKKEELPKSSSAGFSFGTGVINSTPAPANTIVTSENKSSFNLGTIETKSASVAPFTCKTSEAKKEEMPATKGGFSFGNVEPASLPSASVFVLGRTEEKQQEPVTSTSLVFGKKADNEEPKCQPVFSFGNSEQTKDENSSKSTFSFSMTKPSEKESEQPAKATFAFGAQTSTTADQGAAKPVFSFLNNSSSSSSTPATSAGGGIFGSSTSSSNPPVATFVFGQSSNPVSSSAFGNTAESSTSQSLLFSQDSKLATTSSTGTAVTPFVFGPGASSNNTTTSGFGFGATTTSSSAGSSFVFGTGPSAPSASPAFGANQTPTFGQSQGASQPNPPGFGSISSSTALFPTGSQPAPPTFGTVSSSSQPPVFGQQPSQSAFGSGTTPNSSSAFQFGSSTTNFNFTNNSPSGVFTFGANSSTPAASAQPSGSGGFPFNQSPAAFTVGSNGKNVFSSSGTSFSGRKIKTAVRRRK
UniProt P39880: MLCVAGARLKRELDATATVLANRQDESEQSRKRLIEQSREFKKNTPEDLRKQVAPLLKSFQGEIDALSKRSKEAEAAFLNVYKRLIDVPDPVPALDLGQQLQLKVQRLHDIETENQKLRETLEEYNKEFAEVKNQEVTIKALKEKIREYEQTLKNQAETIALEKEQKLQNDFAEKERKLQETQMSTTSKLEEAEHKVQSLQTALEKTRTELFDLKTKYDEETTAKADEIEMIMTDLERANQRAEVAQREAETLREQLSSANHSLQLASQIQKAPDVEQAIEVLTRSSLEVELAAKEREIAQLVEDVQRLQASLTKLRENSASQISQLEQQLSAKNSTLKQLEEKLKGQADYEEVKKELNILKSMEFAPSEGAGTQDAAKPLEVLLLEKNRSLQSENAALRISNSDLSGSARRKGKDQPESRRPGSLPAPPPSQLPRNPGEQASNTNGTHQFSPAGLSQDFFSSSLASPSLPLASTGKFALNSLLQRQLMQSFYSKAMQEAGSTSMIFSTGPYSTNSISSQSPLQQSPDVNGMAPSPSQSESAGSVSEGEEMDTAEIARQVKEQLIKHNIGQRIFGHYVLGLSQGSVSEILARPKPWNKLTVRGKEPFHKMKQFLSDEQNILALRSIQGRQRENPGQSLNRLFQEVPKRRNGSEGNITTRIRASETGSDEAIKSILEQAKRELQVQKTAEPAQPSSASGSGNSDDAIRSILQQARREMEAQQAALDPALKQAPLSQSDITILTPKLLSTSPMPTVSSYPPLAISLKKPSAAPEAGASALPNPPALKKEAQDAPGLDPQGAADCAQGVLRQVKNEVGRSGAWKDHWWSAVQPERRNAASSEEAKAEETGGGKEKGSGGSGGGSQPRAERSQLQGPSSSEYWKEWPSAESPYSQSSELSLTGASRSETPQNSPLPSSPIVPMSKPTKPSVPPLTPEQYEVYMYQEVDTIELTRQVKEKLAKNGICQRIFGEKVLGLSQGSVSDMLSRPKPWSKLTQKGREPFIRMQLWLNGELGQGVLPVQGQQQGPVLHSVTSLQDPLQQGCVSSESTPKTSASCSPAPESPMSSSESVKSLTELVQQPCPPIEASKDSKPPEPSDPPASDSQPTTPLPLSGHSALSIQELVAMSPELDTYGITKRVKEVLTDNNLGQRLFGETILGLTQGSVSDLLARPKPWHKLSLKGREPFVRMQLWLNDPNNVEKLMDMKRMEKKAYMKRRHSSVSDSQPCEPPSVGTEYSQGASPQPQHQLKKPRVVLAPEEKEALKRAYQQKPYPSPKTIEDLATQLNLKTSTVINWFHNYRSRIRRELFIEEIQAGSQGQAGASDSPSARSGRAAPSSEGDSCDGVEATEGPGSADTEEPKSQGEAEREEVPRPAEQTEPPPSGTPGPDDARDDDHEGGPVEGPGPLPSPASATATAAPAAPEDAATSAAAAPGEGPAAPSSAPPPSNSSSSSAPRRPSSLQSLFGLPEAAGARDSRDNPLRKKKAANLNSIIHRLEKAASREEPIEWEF


biological target: T1, BirA*-Flag-FANCA; test: proximity labelling

Row | binding | Molecule
1 | binds | NUP153 (from UniProt P49790 1-1475)
2 | binds | CUX1 (from UniProt P39880 1-1505)
3 | binds | FAAP20 (protein, UniProt Q6NZ36 1-180) MEAARRPRLGLSRRRPRPAGGPSGGRPWFLLGGDERERLWAELLRTVSPELILDHEVPSLPAFPGQEPRCGPEPTEVFTVGPKTFSWTPFPPDLWGPGRSYRLLHGAGGHLESPARSLPQRPAPDPCRAPRVEQQPSVEGAAALRSCPMCQKEFAPRLTQLDVDSHLAQCLAESTEDVTW
4 | binds | FANCG (protein, UniProt O15287 1-622) MSRQTTSVGSSCLDLWREKNDRLVRQAKVAQNSGLTLRRQQLAQDALEGLRGLLHSLQGLPAAVPVLPLELTVTCNFIILRASLAQGFTEDQAQDIQRSLERVLETQEQQGPRLEQGLRELWDSVLRASCLLPELLSALHRLVGLQAALWLSADRLGDLALLLETLNGSQSGASKDLLLLLKTWSPPAEELDAPLTLQDAQGLKDVLLTAFAYRQGLQELITGNPDKALSSLHEAASGLCPRPVLVQVYTALGSCHRKMGNPQRALLYLVAALKEGSAWGPPLLEASRLYQQLGDTTAELESLELLVEALNVPCSSKAPQFLIEVELLLPPPDLASPLHCGTQSQTKHILASRCLQTGRAGDAAEHYLDLLALLLDSSEPRFSPPPSPPGPCMPEVFLEAAVALIQAGRAQDALTLCEELLSRTSSLLPKMSRLWEDARKGTKELPYCPLWVSATHLLQGQAWVQLGAQKVAISEFSRCLELLFRATPEEKEQGAAFNCEQGCKSDAALQQLRAAALISRGLEWVASGQDTKALQDFLLSVQMCPGNRDTYFHLLQTLKRLDRRDEATALWWRLEAQTKGSHEDALWSLPLYLESYLSWIRPSDRDAFLEEFRTSLPKSCDL

— paper doi:10.1101/2025.09.11.675346
